{"source": "PubChem BioAssay AID298", "about": "(DTP/NCI, 2004)", "test_system": "MX-1 breast xenograft, intrarenal, nude mice, tumor weight", "assay": "NCI In Vivo Anticancer Drug Screen. Data for tumor model Human Mammary Carcinoma MX-1 Xenograft (intrarenal inoculation) in NU/NU BALB/C (nude) mice", "details": "T/C endpoint: mean tumor weight change, schedule: Q04DX003 (sc), higher T/C = larger tumour; for T/C: evaluated on day 11", "procedure": "The antitumor activity of compounds was measured in mice bearing transplantable tumors. Survival or tumor size were measured and the results are expressed as the measurement made in the treated group (T) divided by the measurement made in the vehicle treated control group (C). The tumor model used in this assay is Human Mammary Carcinoma MX-1 Xenograft (intrarenal inoculation) in NU/NU BALB/C (nude) mice", "note": "The list shows only some results of the screen, not a fair sample: it covers a few groups of compounds. Not every dose and run of a compound is shown. T/C: endpoint of the treated group in % of that of the vehicle group. Schedules are NCI's codes, taken here to give the interval after Q, in days (D) or hours (H), and the number of doses after X. Some values lie below zero, which means that the treated tumours became smaller. Some T/C values are followed by the survivors on the day toxicity was checked; where neither a count nor a note follows, no animal had died by that day. Some doses have a count of surviving animals in place of a T/C: the source files T/C as zero there, which appears to mark a toxic dose or a test without result, not a measured value. Counts of survivors are from the toxicity check, whose day is not always given; animals may have died later."}
{"molecule": "ICCN(CCI)c1cccc2ccccc12", "values": [{"measurement": "T/C", "setting": "dose: 37.5 mg/kg/injection, vehicle: Klucel (hydroxypropylcellulose) (HPC)", "result": "16 % of control"}, {"measurement": "T/C", "setting": "dose: 75.0 mg/kg/injection, vehicle: Klucel (hydroxypropylcellulose) (HPC)", "result": "4 % of control"}, {"measurement": "T/C", "setting": "dose: 150.0 mg/kg/injection, vehicle: Klucel (hydroxypropylcellulose) (HPC)", "result": "1 % of control"}]}
{"molecule": "CC1(C)CN1P(=O)(Nc1ncccn1)N1CC1(C)C", "note": "(stereo not given)", "values": [{"measurement": "T/C", "setting": "dose: 200.0 mg/kg/injection, vehicle: saline", "result": "61 % of control"}, {"measurement": "T/C", "setting": "dose: 400.0 mg/kg/injection, vehicle: saline", "result": "17 % of control"}, {"measurement": "T/C", "setting": "dose: 800.0 mg/kg/injection, vehicle: saline", "result": "-59 % of control"}, {"measurement": "survivor count", "setting": "dose: 1600.0 mg/kg/injection, vehicle: saline", "result": "0 of 6 on day 11"}]}
{"molecule": "ClC1CSC1", "values": [{"measurement": "T/C", "setting": "dose: 300.0 mg/kg/injection, vehicle: saline with Tween-80", "result": "111 % of control"}, {"measurement": "T/C", "setting": "dose: 600.0 mg/kg/injection, vehicle: saline with Tween-80", "result": "68 % of control"}, {"measurement": "T/C", "setting": "dose: 1200.0 mg/kg/injection, vehicle: saline with Tween-80", "result": "127 % of control"}, {"measurement": "T/C", "setting": "dose: 2400.0 mg/kg/injection, vehicle: saline with Tween-80", "result": "135 % of control [5 of 6 alive on day 11]"}]}
{"molecule": "C[As](C)SC1OC(CO)C(O)C(O)C1O", "note": "(stereo not given)", "values": [{"measurement": "T/C", "setting": "dose: 24.0 mg/kg/injection, vehicle: saline", "result": "107 % of control"}, {"measurement": "T/C", "setting": "dose: 48.0 mg/kg/injection, vehicle: saline", "result": "113 % of control"}, {"measurement": "T/C", "setting": "dose: 96.0 mg/kg/injection, vehicle: saline", "result": "92 % of control"}, {"measurement": "T/C", "setting": "dose: 192.0 mg/kg/injection, vehicle: saline", "result": "70 % of control"}]}
